Test results: the supplement of paper PMC10849652
This is one part of the list. Residues, ends and D or L forms follow the SMILES beside them. *: point of attachment. Cbz = O=C(OCc1ccccc1)*

Chains of the proteins cited; added tags and fusions are not shown. Lines headed by an entry give the natural chain unless they say otherwise; changes in a name come on top.
UniProt O75391: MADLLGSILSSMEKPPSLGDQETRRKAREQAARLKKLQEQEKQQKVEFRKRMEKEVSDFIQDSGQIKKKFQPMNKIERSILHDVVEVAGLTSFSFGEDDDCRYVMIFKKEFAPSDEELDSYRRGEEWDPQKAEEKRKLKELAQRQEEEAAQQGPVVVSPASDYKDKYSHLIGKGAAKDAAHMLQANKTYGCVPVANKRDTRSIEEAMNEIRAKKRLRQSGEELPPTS
UniProt O14508, whole entry, looked up: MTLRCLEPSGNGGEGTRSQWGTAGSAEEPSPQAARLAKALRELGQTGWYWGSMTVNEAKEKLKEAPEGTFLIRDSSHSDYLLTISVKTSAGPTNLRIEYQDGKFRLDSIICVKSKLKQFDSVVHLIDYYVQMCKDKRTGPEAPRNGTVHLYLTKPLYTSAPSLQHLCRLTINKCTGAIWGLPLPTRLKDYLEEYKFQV
UniProt Q96BD0: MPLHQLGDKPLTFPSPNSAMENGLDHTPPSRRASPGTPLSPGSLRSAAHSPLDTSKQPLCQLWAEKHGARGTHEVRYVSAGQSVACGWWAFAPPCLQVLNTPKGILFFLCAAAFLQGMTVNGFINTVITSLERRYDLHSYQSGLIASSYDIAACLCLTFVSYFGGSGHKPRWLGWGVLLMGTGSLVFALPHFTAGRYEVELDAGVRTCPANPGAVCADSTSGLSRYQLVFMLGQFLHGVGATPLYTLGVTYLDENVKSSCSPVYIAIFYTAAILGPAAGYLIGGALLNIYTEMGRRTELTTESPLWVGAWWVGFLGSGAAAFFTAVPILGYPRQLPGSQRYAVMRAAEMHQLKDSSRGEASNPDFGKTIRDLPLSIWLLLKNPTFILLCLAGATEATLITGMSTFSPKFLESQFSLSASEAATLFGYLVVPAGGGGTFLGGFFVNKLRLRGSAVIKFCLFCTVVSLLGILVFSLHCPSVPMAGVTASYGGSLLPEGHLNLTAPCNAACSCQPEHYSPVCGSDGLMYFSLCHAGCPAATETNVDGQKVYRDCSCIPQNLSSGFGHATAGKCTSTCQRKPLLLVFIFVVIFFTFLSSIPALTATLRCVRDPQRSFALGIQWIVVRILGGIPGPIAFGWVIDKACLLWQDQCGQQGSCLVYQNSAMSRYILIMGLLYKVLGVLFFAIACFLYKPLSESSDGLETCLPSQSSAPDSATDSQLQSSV
UniProt P62314, whole entry, looked up: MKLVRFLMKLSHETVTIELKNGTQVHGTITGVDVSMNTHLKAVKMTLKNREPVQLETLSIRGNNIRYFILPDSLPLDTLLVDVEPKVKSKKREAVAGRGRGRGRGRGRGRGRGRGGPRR
UniProt O60641: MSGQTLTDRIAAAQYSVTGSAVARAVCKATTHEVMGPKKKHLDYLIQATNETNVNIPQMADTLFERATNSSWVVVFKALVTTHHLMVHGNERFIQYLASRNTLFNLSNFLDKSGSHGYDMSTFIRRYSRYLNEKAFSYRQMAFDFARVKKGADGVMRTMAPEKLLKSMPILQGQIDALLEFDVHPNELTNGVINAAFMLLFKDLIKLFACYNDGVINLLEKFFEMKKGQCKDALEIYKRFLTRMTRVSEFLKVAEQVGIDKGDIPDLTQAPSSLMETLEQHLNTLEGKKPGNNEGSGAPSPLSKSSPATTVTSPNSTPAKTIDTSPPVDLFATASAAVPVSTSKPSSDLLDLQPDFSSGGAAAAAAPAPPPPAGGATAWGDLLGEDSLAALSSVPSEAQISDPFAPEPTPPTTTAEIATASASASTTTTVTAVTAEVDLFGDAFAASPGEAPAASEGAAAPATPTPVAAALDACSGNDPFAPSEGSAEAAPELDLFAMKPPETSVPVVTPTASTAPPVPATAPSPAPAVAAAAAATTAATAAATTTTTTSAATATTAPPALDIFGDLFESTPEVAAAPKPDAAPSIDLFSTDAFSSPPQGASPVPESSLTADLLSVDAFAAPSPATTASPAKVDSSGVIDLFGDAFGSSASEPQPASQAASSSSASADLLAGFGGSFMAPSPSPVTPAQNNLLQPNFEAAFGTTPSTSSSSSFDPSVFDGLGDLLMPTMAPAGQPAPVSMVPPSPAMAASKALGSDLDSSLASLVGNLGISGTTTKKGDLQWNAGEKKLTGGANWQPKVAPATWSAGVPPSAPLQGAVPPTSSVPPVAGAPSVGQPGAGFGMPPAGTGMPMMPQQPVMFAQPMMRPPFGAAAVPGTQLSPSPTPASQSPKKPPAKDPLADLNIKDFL
UniProt Q9BT81: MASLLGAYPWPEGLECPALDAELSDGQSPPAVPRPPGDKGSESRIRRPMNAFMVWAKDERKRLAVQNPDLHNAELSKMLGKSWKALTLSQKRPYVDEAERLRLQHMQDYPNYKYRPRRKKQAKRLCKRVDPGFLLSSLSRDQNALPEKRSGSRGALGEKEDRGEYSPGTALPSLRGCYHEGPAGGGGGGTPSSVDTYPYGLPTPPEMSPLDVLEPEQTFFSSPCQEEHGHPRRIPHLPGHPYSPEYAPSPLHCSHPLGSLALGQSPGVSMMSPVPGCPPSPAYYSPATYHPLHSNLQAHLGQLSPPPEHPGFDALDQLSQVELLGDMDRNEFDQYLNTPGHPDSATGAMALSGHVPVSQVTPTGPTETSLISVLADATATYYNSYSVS
UniProt Q9UQE7: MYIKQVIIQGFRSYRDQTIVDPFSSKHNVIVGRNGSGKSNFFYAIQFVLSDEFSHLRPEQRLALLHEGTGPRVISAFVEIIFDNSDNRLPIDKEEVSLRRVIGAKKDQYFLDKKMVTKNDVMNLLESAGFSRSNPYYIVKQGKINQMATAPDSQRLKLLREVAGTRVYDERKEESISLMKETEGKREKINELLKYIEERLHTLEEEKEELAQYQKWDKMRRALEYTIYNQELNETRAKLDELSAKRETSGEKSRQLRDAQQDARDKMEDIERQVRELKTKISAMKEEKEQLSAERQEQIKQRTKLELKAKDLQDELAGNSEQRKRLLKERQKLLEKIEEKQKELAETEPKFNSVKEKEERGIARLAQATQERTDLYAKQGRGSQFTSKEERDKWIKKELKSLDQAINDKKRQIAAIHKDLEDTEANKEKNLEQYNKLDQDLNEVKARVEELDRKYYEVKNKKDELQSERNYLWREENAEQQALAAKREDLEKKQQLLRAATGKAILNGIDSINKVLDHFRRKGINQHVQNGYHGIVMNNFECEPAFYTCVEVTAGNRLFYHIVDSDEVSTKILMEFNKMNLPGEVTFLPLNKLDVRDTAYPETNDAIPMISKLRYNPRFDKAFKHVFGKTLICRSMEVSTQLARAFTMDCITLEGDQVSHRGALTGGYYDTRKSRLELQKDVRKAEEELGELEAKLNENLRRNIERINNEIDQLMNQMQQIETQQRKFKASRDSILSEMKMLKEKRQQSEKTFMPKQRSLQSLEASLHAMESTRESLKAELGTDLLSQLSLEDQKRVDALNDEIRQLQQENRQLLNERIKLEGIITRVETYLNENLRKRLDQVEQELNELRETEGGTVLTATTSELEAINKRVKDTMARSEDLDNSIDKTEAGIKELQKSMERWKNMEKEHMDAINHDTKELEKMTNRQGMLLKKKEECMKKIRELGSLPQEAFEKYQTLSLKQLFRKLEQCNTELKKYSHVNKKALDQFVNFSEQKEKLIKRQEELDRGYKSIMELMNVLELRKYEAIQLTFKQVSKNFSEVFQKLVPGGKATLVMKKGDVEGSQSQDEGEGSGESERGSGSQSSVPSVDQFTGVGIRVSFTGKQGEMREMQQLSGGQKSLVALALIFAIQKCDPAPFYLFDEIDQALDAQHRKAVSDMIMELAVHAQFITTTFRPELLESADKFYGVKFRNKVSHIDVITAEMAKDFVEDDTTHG
UniProt Q8IYB5: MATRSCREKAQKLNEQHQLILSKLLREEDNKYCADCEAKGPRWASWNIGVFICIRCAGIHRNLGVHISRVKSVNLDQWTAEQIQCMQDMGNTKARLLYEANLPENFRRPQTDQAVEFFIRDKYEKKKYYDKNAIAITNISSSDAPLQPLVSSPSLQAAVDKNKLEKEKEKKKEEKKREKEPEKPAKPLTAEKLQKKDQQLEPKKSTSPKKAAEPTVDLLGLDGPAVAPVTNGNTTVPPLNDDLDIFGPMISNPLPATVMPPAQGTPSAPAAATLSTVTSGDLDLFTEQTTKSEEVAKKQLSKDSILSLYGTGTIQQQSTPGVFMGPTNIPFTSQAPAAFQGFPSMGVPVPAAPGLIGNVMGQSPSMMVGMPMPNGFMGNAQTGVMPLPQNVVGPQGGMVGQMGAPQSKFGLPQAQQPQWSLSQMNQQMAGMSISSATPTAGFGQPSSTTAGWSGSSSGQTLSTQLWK
UniProt Q9NRG4: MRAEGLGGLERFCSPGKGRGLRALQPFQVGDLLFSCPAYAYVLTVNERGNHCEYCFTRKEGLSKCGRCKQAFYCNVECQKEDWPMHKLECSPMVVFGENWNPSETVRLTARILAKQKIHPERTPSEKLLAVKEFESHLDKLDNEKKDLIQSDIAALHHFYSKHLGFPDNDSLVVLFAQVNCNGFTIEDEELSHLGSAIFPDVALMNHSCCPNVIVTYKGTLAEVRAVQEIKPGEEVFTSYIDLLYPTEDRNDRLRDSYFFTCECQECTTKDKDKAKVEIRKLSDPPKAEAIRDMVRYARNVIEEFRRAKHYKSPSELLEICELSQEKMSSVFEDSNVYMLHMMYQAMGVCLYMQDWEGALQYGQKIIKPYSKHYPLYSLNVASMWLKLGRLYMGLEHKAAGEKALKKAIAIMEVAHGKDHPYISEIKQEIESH
UniProt Q15506: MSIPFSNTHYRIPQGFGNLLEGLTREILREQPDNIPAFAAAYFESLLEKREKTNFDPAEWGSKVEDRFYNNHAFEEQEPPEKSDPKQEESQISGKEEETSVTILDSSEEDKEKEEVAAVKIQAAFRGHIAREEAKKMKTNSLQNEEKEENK
UniProt Q00796: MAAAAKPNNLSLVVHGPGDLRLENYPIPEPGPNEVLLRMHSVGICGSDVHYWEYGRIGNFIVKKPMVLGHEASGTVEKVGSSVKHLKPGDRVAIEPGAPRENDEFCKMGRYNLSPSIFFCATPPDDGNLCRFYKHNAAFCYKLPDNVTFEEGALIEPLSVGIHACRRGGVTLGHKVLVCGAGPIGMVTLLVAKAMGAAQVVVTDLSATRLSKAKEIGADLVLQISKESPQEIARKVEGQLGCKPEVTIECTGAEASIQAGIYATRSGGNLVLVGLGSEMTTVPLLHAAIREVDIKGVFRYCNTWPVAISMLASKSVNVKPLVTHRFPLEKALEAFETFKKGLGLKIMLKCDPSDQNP
UniProt Q8ND04: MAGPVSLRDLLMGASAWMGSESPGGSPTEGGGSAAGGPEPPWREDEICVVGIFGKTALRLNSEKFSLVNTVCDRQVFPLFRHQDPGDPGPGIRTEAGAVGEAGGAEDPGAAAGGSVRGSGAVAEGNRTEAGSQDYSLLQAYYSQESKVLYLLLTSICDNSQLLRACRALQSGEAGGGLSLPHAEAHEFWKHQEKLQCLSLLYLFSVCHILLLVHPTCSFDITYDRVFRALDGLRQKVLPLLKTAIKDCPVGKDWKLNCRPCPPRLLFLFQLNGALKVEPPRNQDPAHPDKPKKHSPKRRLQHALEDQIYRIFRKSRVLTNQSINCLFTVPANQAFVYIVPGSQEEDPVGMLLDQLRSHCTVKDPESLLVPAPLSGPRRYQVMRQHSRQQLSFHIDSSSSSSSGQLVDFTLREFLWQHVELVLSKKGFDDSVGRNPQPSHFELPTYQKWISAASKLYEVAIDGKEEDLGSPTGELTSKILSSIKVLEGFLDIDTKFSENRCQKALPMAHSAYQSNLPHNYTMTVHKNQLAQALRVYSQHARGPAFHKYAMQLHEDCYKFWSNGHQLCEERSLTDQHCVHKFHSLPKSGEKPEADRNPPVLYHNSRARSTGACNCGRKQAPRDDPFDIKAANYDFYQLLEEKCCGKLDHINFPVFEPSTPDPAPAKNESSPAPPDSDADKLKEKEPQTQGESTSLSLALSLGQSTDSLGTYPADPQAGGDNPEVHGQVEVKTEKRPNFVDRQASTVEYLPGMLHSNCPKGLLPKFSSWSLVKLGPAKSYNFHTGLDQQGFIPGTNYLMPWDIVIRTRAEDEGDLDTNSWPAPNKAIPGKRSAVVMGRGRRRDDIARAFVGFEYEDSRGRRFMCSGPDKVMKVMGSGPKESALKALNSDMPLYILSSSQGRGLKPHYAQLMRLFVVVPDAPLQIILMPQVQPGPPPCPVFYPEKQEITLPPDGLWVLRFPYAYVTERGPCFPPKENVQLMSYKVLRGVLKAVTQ
UniProt P09234, whole entry, looked up: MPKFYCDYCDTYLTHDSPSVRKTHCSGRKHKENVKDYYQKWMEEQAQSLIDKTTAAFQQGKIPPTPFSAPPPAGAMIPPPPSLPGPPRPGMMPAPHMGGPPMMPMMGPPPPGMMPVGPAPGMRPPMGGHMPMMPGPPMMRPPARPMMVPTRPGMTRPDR
UniProt P04179: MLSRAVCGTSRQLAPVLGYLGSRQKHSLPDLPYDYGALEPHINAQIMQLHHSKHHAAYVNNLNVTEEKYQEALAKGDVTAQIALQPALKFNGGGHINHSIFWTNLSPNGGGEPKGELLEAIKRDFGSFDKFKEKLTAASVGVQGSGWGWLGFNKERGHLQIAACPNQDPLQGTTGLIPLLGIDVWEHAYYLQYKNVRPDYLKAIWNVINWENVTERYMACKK

What was measured:
Assay in all cases: log2 fold change, soluble protein after heating vs DMSO (PISA); higher = thermal stabilisation; K562 cells, 10 uM, 30 min; active = over 0.2 and 3.5 SD of the protein, either way, in both replicates (recomputed)
IRAK-1-4 Inhibitor I = compound: C1COCCN1CCN2C3=CC=CC=C3N=C2NC(=O)C4=CC(=CC=C4)[N+](=O)[O-] [IRAK-1-4 Inhibitor I]
Procedure, shortened: (§1)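 K562 cells at 2×10^6 cells/mL were treated for 30 min with 10 μM compound, and aliquots were heated for 3 min over 48°C-58°C before pooling. Extraction used PBS with 0.5% NP-40 at 4°C, and soluble protein was the supernatant after 21,000xg for 90 min, measured by TMTpro 16plex LC-MS/MS with channel sums equalised. Thermal stability values, relative to control samples and from duplicates, are log2 fold changes.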

ibrutinib = compound: C=CC(=O)N1CCC[C@@H](n2nc(-c3ccc(Oc4ccccc4)cc3)c3c(N)ncnc32)C1 [ibrutinib]
Procedure, shortened: as §1

[1] = compound: CC(=O)c1cnc2ccc(-c3cc(Cl)c(O)c(Cl)c3)nc2c1N[C@H]1CC[C@H](CN(C)C)CC1
Procedure, shortened: as §1

ralimetinib = compound: CC(C)(C)Cn1c(N)nc2ccc(-c3[nH]c(C(C)(C)C)nc3-c3ccc(F)cc3)nc21 [ralimetinib]
Procedure, shortened: as §1

[2] = compound: CC(C)(O)CC(=O)NCCn1ccc2ncnc(Nc3ccc(Oc4cccc(C(F)(F)F)c4)c(Cl)c3)c21
Procedure, shortened: as §1

[3] = compound: CC(C)C1=C2N=C(C=C(N2N=C1)NCC3=CC=CC=C3)NCCCCCCN
Procedure, shortened: as §1

[4] = compound: CC(C)C[C@@H](C=O)NC(=O)[C@H](CC(C)C)NC(=O)[C@H](CC(C)C)NC(=O)OCc1ccccc1
Procedure, shortened: as §1

pinometostat = compound: CC(C)N(C[C@H]1O[C@@H](n2cnc3c(N)ncnc32)[C@H](O)[C@@H]1O)[C@H]1C[C@@H](CCc2nc3cc(C(C)(C)C)ccc3[nH]2)C1 [pinometostat]
Procedure, shortened: as §1

[5] = compound: CC1=C(C(CC(=O)N1)C2=CC=C(C=C2)C(F)(F)F)C(=O)NC3=C(C=C4C(=C3)C=NN4)F
Procedure, shortened: as §1

[6] = compound: CC1=C(C2=C(C=C1)C(=O)C3=CC=CC=C3N2CCCN)C
Procedure, shortened: as §1

Measured: log2 fold change

SPAG7 (UniProt O75391)
inactive: IRAK-1-4 Inhibitor I 0.068 | ibrutinib 0.003 | [1] 0.03 | ralimetinib -0.018 | [2] -0.005 | [3] 0.049 | [4] 0.028 | pinometostat -0.037 | [5] 0.023 | [6] -0.033

SOCS2 (UniProt O14508)
inactive: IRAK-1-4 Inhibitor I 0.047 | ibrutinib -0.034 | [1] -0.035 | ralimetinib -0.072 | [2] -0.054 | [3] 0.056 | [4] 0.048 | pinometostat -0.031 | [5] -0.018 | [6] -0.013

SMARCA4 (UniProt P51532)
inactive: IRAK-1-4 Inhibitor I -0.155 | ibrutinib -0.136 | [1] -0.056 | ralimetinib 0.255 | [2] 0.027 | [3] -0.397 | [4] 0.16 | pinometostat 0.193

SNU13, A0A3B3IUA2
inactive: IRAK-1-4 Inhibitor I -0.01 | ibrutinib -0.046 | [1] -0.051 | ralimetinib -0.146 | [2] -0.008 | [3] 0.002 | [4] -0.08 | pinometostat -0.007 | [5] 0.129 | [6] 0.088

SNRPA1 (UniProt P09661)
inactive: IRAK-1-4 Inhibitor I 0.051 | ibrutinib -0.024 | [1] 0.111 | ralimetinib 0.066 | [2] 0.101 | [3] 0.203 | [4] -0.103 | pinometostat -0.018 | [5] 0.007 | [6] 0.063

SLCO4A1 (UniProt Q96BD0)
inactive: IRAK-1-4 Inhibitor I -0.228 | ibrutinib -0.272 | [1] -0.017 | ralimetinib 0.041 | [2] 0.032 | [3] 0.246 | [4] 0.089 | pinometostat 0.168 | [5] -0.06 | [6] 0.111

SNRPD1 (UniProt P62314)
inactive: IRAK-1-4 Inhibitor I 0.014 | ibrutinib 0 | [1] 0.017 | ralimetinib -0.103 | [2] 0.036 | [3] 0.18 | [4] 0.041 | pinometostat 0.002 | [5] -0.027 | [6] 0.055

SNAP91 (UniProt O60641)
inactive: IRAK-1-4 Inhibitor I 0.069 | ibrutinib 0.082 | [1] -0.009 | ralimetinib 0.016 | [2] -0.049 | [3] 0.058 | [4] 0.015 | pinometostat -0.073 | [5] -0.063 | [6] 0.026

SOX7 isoform 2 (UniProt Q9BT81)
inactive: IRAK-1-4 Inhibitor I 0.003 | ibrutinib -0.02 | [1] 0.183 | ralimetinib 0.054 | [2] 0.085 | [3] -0.075 | [4] 0.194 | pinometostat 0.336 | [5] -0.018 | [6] -0.125

SNX12 isoform 1 (UniProt Q9UMY4)
inactive: IRAK-1-4 Inhibitor I 0.039 | ibrutinib -0.007 | [1] -0.069 | ralimetinib -0.011 | [2] -0.068 | [3] -0.09 | [4] 0.03 | pinometostat 0.032 | [6] 0

SMC1B isoform 3 (UniProt Q8NDV3)
inactive: IRAK-1-4 Inhibitor I 0.028 | ibrutinib 0.138 | [1] -0.076 | ralimetinib -0.152 | [2] -0.029 | [3] 0.023 | [4] 0.008 | pinometostat -0.053 | [5] 0.016 | [6] -0.082

SNRPD3 (UniProt P62318)
inactive: IRAK-1-4 Inhibitor I 0.002 | ibrutinib -0.006 | [1] 0.067 | ralimetinib -0.022 | [2] 0.208 | [3] 0.162 | [4] 0.017 | pinometostat 0.027 | [6] 0.022

2 entries picked at random from those above:
SNX12 isoform 1 (UniProt Q9UMY4)
inactive: IRAK-1-4 Inhibitor I 0.039 | ibrutinib -0.007 | [1] -0.069 | ralimetinib -0.011 | [2] -0.068 | [3] -0.09 | [4] 0.03 | pinometostat 0.032 | [6] 0

SMC1B isoform 3 (UniProt Q8NDV3)
inactive: IRAK-1-4 Inhibitor I 0.028 | ibrutinib 0.138 | [1] -0.076 | ralimetinib -0.152 | [2] -0.029 | [3] 0.023 | [4] 0.008 | pinometostat -0.053 | [5] 0.016 | [6] -0.082

Later entries

SOD1 (UniProt P00441)
inactive: IRAK-1-4 Inhibitor I 0.055 | ibrutinib -0.017 | [1] -0.006 | ralimetinib -0.093 | [2] 0.038 | [3] 0.1 | [4] 0.156 | pinometostat -0.038 | [5] -0.051 | [6] -0.038

SMC3 (UniProt Q9UQE7)
inactive: IRAK-1-4 Inhibitor I -0.022 | ibrutinib -0.035 | [1] -0.166 | ralimetinib -0.052 | [2] -0.043 | [3] 0.027 | [4] -0.009 | pinometostat -0.004 | [5] -0.009 | [6] -0.096

SORBS1 isoform 12 (UniProt Q9BX66)
inactive: IRAK-1-4 Inhibitor I 0.036 | ibrutinib -0.01 | [1] -0.12 | ralimetinib 0.033 | [2] -0.026 | [3] -0.019 | [4] -0.006 | pinometostat -0.013 | [5] 0.039 | [6] 0.001

SMG5 (UniProt Q9UPR3)
inactive: IRAK-1-4 Inhibitor I -0.007 | ibrutinib -0.067 | [1] 0.195 | ralimetinib 0.05 | [2] 0.07 | [3] -0.081 | [4] 0.034 | pinometostat 0.076 | [5] 0.037 | [6] 0.159

SNRPE (UniProt P62304)
inactive: IRAK-1-4 Inhibitor I 0.028 | ibrutinib 0.013 | [1] 0.022 | ralimetinib -0.032 | [2] 0.071 | [3] 0.192 | [4] -0.023 | pinometostat -0.011 | [5] 0.007 | [6] 0.046

SMAP1 isoform 2 (UniProt Q8IYB5)
inactive: IRAK-1-4 Inhibitor I 0.005 | ibrutinib -0.031 | [1] 0.019 | ralimetinib 0.001 | [2] -0.028 | [3] 0.083 | [4] 0.014 | pinometostat -0.085 | [5] -0.014 | [6] 0.026

SMYD2 (UniProt Q9NRG4)
inactive: IRAK-1-4 Inhibitor I -0.154 | ibrutinib 0.029 | [1] -0.088 | ralimetinib -0.105 | [2] -0.087 | [3] -0.117 | [4] 0.134 | pinometostat 0.099 | [6] 0.116

SPA17 (UniProt Q15506)
inactive: IRAK-1-4 Inhibitor I 0.079 | ibrutinib -0.012 | [1] 0.044 | ralimetinib 0.005 | [2] 0.055 | [3] 0.05 | [4] 0.014 | pinometostat -0.07 | [5] 0.039 | [6] -0.056

SNRPB isoform 3 (UniProt P14678)
inactive: IRAK-1-4 Inhibitor I 0.02 | ibrutinib -0.002 | [1] 0.095 | ralimetinib 0.119 | [2] 0.1 | [3] 0.222 | [4] -0.052 | pinometostat 0.002 | [5] -0.044 | [6] 0.05

SPAG5 (UniProt Q96R06)
inactive: IRAK-1-4 Inhibitor I -0.184 | ibrutinib -0.13 | [1] -0.1 | ralimetinib 0.158 | [2] -0.038 | [3] -0.335 | [4] 0.172 | pinometostat 0.414 | [5] -0.021 | [6] 0.128

SORD (UniProt Q00796)
inactive: IRAK-1-4 Inhibitor I 0.011 | ibrutinib 0.005 | [1] 0.03 | ralimetinib -0.037 | [2] -0.019 | [3] 0.106 | [4] -0.02 | pinometostat -0.072 | [5] -0.001 | [6] 0.024

SMG8 isoform 2 (UniProt Q8ND04)
inactive: IRAK-1-4 Inhibitor I -0.133 | ibrutinib -0.006 | [1] -0.42 | ralimetinib 0.025 | [2] -0.044 | [3] -0.125 | [4] 0.039 | pinometostat 0.037 | [5] -0.032 | [6] -0.014

SMC4 (UniProt Q9NTJ3)
inactive: IRAK-1-4 Inhibitor I -0.077 | ibrutinib -0.039 | [1] 0.024 | ralimetinib 0.09 | [2] -0.092 | [3] -0.083 | [4] 0.073 | pinometostat 0.01 | [5] -0.014 | [6] 0.005

SNRNP200 (UniProt O75643)
inactive: IRAK-1-4 Inhibitor I 0.046 | ibrutinib -0.005 | [1] 0.068 | ralimetinib 0.007 | [2] 0.038 | [3] 0.156 | [4] 0.069 | pinometostat 0.071 | [5] -0.034 | [6] 0.075

SNRPC (UniProt P09234)
inactive: IRAK-1-4 Inhibitor I 0.001 | ibrutinib 0.007 | [1] 0.003 | ralimetinib -0.076 | [2] 0.015 | [3] 0.162 | [4] 0.015 | pinometostat -0.064 | [5] -0.004 | [6] 0.12

SOS1 (UniProt Q07889)
inactive: IRAK-1-4 Inhibitor I -0.01 | ibrutinib 0.157 | [1] -0.042 | ralimetinib 0.124 | [2] -0.234 | [3] -0.028 | [4] 0.106 | pinometostat 0.031 | [5] 0.075 | [6] 0.117

SOD2 (UniProt P04179)
inactive: IRAK-1-4 Inhibitor I 0.041 | ibrutinib -0.01 | [1] 0.041 | ralimetinib -0.026 | [2] 0.191 | [3] 0.042 | [4] -0.054 | pinometostat -0.14 | [5] 0.024 | [6] -0.016

SMC1A (UniProt Q14683)
inactive: IRAK-1-4 Inhibitor I -0.008 | ibrutinib -0.031 | [1] -0.139 | ralimetinib 0.01 | [2] -0.036 | [3] -0.002 | [4] -0.015 | pinometostat -0.006 | [5] -0.014 | [6] -0.101
